Residue numbers refer to the chain shown, from its start. Names may count otherwise. Results are given in words; binding and its absence hold for the method and conditions named. In cells and extracts the contact can be indirect. Some binding calls cover weakened binding; strength is not graded here. For some of these results: Tags and fused reporters may be left off the sequences shown.
B1: Myc-tagged Prrt2, mouse, full-length (protein, UniProt E9PUL5 1-346)
chain: MAASSSQVSEMKGVEDSSKTQTEGPRHSEEGLGPVQVVAEIPDQPEALQPGPGITAAPVDSGPKAELAPETTETPVETPETVQATDLSLNPEEGSKASPSPSPSEARQEPASKPDVNRETAAEEGSEPQSTAPPEPTSEPAFQINTQSDPQPTSQPPPKPPLQAEPPTQEDPTTEVLTESTGEKQENGAVVPLQAGDGEEGPAPQPHSPPSTKTPPANGAPPRVLQKLVEEDRIGRAHGGHPGSPRGSLSRHPSSQLAGPGVEGGEGTQKPRDYIILAILSCFCPMWPVNIVAFAYAVMSRNSLQQGDVDGAQRLGRVAKLLSIVALVGGVLIIIASCVINLGVYK
B2: Prrt2, endogenous in mouse brain extract (protein, UniProt E9PUL5 1-346)
chain: B1 chain
B3: Flag-tagged wild type (WT) PRRT2 (proline-rich transmembrane protein 2), human, full-length (protein, UniProt Q7Z6L0 1-340)
chain: MAASSSEISEMKGVEESPKVPGEGPGHSEAETGPPQVLAGVPDQPEAPQPGPNTTAAPVDSGPKAGLAPETTETPAGASETAQATDLSLSPGGESKANCSPEDPCQETVSKPEVSKEATADQGSRLESAAPPEPAPEPAPQPDPRPDSQPTPKPALQPELPTQEDPTPEILSESVGEKQENGAVVPLQAGDGEEGPAPEPHSPPSKKSPPANGAPPRVLQQLVEEDRMRRAHSGHPGSPRGSLSRHPSSQLAGPGVEGGEGTQKPRDYIILAILSCFCPMWPVNIVAFAYAVMSRNSLQQGDVDGAQRLGRVAKLLSIVALVGGVLIIIASCVINLGVYK
B4: Flag-tagged PRRT2 p.A287T (c.859G>A), human, missense mutant (protein, UniProt Q7Z6L0 1-340)
chain: B3 chain with A287T

Protein sequences, listed by entry. Tags and fused reporters are not part of them. Residues count along the entry.
UniProt P23818, residues 19-907: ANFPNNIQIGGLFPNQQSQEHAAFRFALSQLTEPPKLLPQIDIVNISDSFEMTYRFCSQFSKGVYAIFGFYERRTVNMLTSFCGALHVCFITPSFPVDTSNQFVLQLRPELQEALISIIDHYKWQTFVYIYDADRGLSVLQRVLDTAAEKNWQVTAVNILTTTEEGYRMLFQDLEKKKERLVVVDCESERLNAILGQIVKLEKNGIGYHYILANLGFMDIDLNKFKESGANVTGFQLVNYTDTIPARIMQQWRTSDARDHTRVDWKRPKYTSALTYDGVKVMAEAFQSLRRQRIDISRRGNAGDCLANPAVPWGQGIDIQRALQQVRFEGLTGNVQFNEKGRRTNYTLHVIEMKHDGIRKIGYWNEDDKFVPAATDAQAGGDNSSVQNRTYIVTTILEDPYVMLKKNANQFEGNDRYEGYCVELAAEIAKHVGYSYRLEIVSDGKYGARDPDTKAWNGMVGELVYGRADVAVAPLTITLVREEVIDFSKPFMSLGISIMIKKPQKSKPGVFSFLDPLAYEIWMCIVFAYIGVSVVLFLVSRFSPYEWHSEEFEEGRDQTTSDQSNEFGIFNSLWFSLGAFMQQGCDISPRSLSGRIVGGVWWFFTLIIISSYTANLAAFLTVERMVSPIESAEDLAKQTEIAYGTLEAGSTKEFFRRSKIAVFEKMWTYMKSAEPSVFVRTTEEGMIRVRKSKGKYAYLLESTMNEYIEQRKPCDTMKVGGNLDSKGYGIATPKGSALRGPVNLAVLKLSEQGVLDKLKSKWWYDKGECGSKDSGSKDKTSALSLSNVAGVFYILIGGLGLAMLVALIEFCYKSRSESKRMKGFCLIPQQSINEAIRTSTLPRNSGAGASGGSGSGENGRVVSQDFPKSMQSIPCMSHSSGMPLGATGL
UniProt P42261, residues 19-906: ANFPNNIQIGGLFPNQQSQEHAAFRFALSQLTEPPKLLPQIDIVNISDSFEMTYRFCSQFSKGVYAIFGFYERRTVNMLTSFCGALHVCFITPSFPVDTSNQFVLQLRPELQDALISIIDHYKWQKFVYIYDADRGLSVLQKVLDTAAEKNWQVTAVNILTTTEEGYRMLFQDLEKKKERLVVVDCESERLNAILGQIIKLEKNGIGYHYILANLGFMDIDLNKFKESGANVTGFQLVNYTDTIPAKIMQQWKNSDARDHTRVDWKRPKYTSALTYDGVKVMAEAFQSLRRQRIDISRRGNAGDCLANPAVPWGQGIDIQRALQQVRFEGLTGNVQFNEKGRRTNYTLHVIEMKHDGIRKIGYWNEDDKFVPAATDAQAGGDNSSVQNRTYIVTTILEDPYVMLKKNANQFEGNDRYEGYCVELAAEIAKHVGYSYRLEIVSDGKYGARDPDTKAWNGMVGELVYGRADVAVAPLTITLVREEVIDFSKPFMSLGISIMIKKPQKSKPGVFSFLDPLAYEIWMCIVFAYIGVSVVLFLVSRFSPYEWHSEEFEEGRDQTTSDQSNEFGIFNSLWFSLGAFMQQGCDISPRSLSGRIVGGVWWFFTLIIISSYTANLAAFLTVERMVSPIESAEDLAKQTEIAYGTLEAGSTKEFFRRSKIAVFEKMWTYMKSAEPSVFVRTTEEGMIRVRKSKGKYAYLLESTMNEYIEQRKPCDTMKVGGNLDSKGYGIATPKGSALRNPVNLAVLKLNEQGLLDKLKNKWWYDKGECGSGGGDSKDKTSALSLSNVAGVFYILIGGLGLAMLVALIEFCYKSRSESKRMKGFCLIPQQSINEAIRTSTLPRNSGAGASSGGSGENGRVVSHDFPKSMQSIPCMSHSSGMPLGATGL

Columns and labels:
[1] = molecular target: HA-tagged Gria1, mouse, full-length, HA-tag after the C-terminal (mouse) (UniProt P23818); assay: co-IP; extracts of HEK293T cells co-transfected with HA-tagged Gria1/GRIA1 and Myc-tagged Prrt2 or Flag-tagged forms of PRRT2, lysed after 48 h; precipitated with HA antibody overnight at 4 °C, Protein A/G PLUS-Agarose 3 h; western blot
[2] = molecular target: Gria1, endogenous in mouse brain extract (mouse (endogenous in mouse brain)) (UniProt P23818); assay: co-IP; mouse brain extract, endogenous proteins; precipitated with anti-Gria1 antibody (normal IgG as control) overnight at 4 °C, Protein A/G PLUS-Agarose 3 h; western blot
[3] = molecular target: HA-tagged GRIA1, human, full-length, HA-tag inserted after the signal peptide (human) (UniProt P42261); assay: co-IP; extracts of HEK293T cells co-transfected with HA-tagged Gria1/GRIA1 and Myc-tagged Prrt2 or Flag-tagged forms of PRRT2, lysed after 48 h; precipitated with HA antibody overnight at 4 °C, Protein A/G PLUS-Agarose 3 h; western blot

Binder | binding [3] | further results
B1 |  | binding [1]: binds
B2 |  | binding [2]: binds
B3 | binds | 
B4 | binds | 

Source: paper PMC4463582
